{"source": "paper PMC12702018", "molecules": {"B1": {"name": "kinesin family member 4A (KIF4A) (protein, UniProt O95239 1-1232)", "chain": "MKEEVKGIPVRVALRCRPLVPKEISEGCQMCLSFVPGEPQVVVGTDKSFTYDFVFDPSTEQEEVFNTAVAPLIKGVFKGYNATVLAYGQTGSGKTYSMGGAYTAEQENEPTVGVIPRVIQLLFKEIDKKSDFEFTLKVSYLEIYNEEILDLLCPSREKAQINIREDPKEGIKIVGLTEKTVLVALDTVSCLEQGNNSRTVASTAMNSQSSRSHAIFTISLEQRKKSDKNSSFRSKLHLVDLAGSERQKKTKAEGDRLKEGININRGLLCLGNVISALGDDKKGGFVPYRDSKLTRLLQDSLGGNSHTLMIACVSPADSNLEETLNTLRYADRARKIKNKPIVNIDPQTAELNHLKQQVQQLQVLLLQAHGGTLPGSITVEPSENLQSLMEKNQSLVEENEKLSRGLSEAAGQTAQMLERIILTEQANEKMNAKLEELRQHAACKLDLQKLVETLEDQELKENVEIICNLQQLITQLSDETVACMAAAIDTAVEQEAQVETSPETSRSSDAFTTQHALRQAQMSKELVELNKALALKEALARKMTQNDSQLQPIQYQYQDNIKELELEVINLQKEKEELVLELQTAKKDANQAKLSERRRKRLQELEGQIADLKKKLNEQSKLLKLKESTERTVSKLNQEIRMMKNQRVQLMRQMKEDAEKFRQWKQKKDKEVIQLKERDRKRQYELLKLERNFQKQSNVLRRKTEEAAAANKRLKDALQKQREVADKRKETQSRGMEGTAARVKNWLGNEIEVMVSTEEAKRHLNDLLEDRKILAQDVAQLKEKKESGENPPPKLRRRTFSLTEVRGQVSESEDSITKQIESLETEMEFRSAQIADLQQKLLDAESEDRPKQRWENIATILEAKCALKYLIGELVSSKIQVSKLESSLKQSKTSCADMQKMLFEERNHFAEIETELQAELVRMEQQHQEKVLYLLSQLQQSQMAEKQLEESVSEKEQQLLSTLKCQDEELEKMREVCEQNQQLLRENEIIKQKLTLLQVASRQKHLPKDTLLSPDSSFEYVPPKPKPSRVKEKFLEQSMDIEDLKYCSEHSVNEHEDGDGDDDEGDDEEWKPTKLVKVSRKNIQGCSCKGWCGNKQCGCRKQKSDCGVDCCCDPTKCRNRQQGKDSLGTVERTQDSEGSFKLEDPTEVTPGLSFFNPVCATPNSKILKEMCDVEQVLSKKTPPAPSPFDLPELKHVATEYQENKAPGKKKKRALASNTSFFSGCSPIEEEAH"}, "B2": {"name": "kinesin family member 23 (KIF23) (protein, UniProt Q02241 1-960)", "chain": "MKSARAKTPRKPTVKKGSQTNLKDPVGVYCRVRPLGFPDQECCIEVINNTTVQLHTPEGYRLNRNGDYKETQYSFKQVFGTHTTQKELFDVVANPLVNDLIHGKNGLLFTYGVTGSGKTHTMTGSPGEGGLLPRCLDMIFNSIGSFQAKRYVFKSNDRNSMDIQCEVDALLERQKREAMPNPKTSSSKRQVDPEFADMITVQEFCKAEEVDEDSVYGVFVSYIEIYNNYIYDLLEEVPFDPIKPKPPQSKLLREDKNHNMYVAGCTEVEVKSTEEAFEVFWRGQKKRRIANTHLNRESSRSHSVFNIKLVQAPLDADGDNVLQEKEQITISQLSLVDLAGSERTNRTRAEGNRLREAGNINQSLMTLRTCMDVLRENQMYGTNKMVPYRDSKLTHLFKNYFDGEGKVRMIVCVNPKAEDYEENLQVMRFAEVTQEVEVARPVDKAICGLTPGRRYRNQPRGPVGNEPLVTDVVLQSFPPLPSCEILDINDEQTLPRLIEALEKRHNLRQMMIDEFNKQSNAFKALLQEFDNAVLSKENHMQGKLNEKEKMISGQKLEIERLEKKNKTLEYKIEILEKTTTIYEEDKRNLQQELETQNQKLQRQFSDKRRLEARLQGMVTETTMKWEKECERRVAAKQLEMQNKLWVKDEKLKQLKAIVTEPKTEKPERPSRERDREKVTQRSVSPSPVPLSSNYIAQISNGQQLMSQPQLHRRSNSCSSISVASCISEWEQKIPTYNTPLKVTSIARRRQQEPGQSKTCIVSDRRRGMYWTEGREVVPTFRNEIEIEEDHCGRLLFQPDQNAPPIRLRHRRSRSAGDRWVDHKPASNMQTETVMQPHVPHAITVSVANEKALAKCEKYMLTHQELASDGEIETKLIKGDIYKTRGGGQSVQFTDIETLKQESPNGSRKRRSSTVAPAQPDGAESEWTDVETRCSVAVEMRAGSQLGPGYQHHAQPKRKKP"}}, "key": {"[1]": {"molecular_target": "GFP-RIF1-L (GFP-tagged full-length RIF1-Long, RAP1 interacting factor 1) (human) (UniProt Q5UIP0)", "assay": "affinity purification with mass spectrometry; RIME: cells fixed with 1% formaldehyde for 8 min, nuclei digested with benzonase, GFP-RIF1 captured on GFP-Trap magnetic agarose beads, washed with RIPA buffer (0.5 M LiCl), on-bead trypsin digest, label-free quantitative LC-MS/MS; enrichment against GFP control IPs at FDR < 0.05"}, "[2]": {"molecular_target": "GFP-RIF1-S (GFP-tagged full-length RIF1-Short, RAP1 interacting factor 1) (human) (UniProt Q5UIP0)", "assay": "affinity purification with mass spectrometry; RIME: cells fixed with 1% formaldehyde for 8 min, nuclei digested with benzonase, GFP-RIF1 captured on GFP-Trap magnetic agarose beads, washed with RIPA buffer (0.5 M LiCl), on-bead trypsin digest, label-free quantitative LC-MS/MS; enrichment against GFP control IPs at FDR < 0.05"}}, "note": "Results are given in words; binding and its absence hold for the method and conditions named. Binding seen in cells or lysates may run through a third protein. A yes stands for co-enrichment or nearness to the bait. Other partners may have been found.", "data": [{"molecule": "nuclear import receptor karyopherin α 3 (KPNA3) (from UniProt O00505 1-521)", "values": [{"measurement": "binding", "setting": "[1]", "value": "binds"}]}, {"molecule": "cell division cycle 20 (CDC20) (from UniProt Q12834 1-499)", "values": [{"measurement": "binding", "setting": "[2]", "value": "binds"}, {"measurement": "binding", "setting": "[1]", "value": "binds"}]}, {"molecule": "Claspin (CLSPN) (from UniProt Q9HAW4 1-1339)", "values": [{"measurement": "binding", "setting": "[2]", "value": "binds"}, {"measurement": "binding", "setting": "[1]", "value": "binds"}]}, {"molecule": "mediator of DNA damage checkpoint 1 (MDC1) (from UniProt Q14676 1-2089)", "values": [{"measurement": "binding", "setting": "[1]", "value": "binds"}]}, {"molecule": "anti-silencing function 1A histone chaperone ASF1A (from UniProt Q9Y294 1-204)", "values": [{"measurement": "binding", "setting": "[2]", "value": "binds"}, {"measurement": "binding", "setting": "[1]", "value": "binds"}]}, {"molecule": "centromere protein F (CENPF) (from UniProt P49454 1-3114)", "values": [{"measurement": "binding", "setting": "[2]", "value": "binds"}, {"measurement": "binding", "setting": "[1]", "value": "binds"}]}, {"molecule": "PAXX (paralog of XRCC4 and XLF) (from UniProt Q9BUH6 1-204)", "values": [{"measurement": "binding", "setting": "[2]", "value": "binds"}]}, {"molecule": "microtubule nucleation factor TPX2 (from UniProt Q9ULW0 1-747)", "values": [{"measurement": "binding", "setting": "[2]", "value": "binds"}, {"measurement": "binding", "setting": "[1]", "value": "binds"}]}, {"molecule": "tumor protein p53 binding protein 1 (53BP1) (from UniProt Q12888 1-1972)", "values": [{"measurement": "binding", "setting": "[2]", "value": "binds"}]}, {"molecule": "B1", "values": [{"measurement": "binding", "setting": "[2]", "value": "binds"}, {"measurement": "binding", "setting": "[1]", "value": "binds"}]}, {"molecule": "B2", "values": [{"measurement": "binding", "setting": "[2]", "value": "binds"}, {"measurement": "binding", "setting": "[1]", "value": "binds"}]}]}
